Results as given in PMC12245033.
No constants are given. Whether binding was seen depends on the method and setting. Binding seen in cells or lysates may run through a third protein. Here binding means that the protein was enriched with, or labelled near, the bait; the list need not be complete.

The chains behind the UniProt entries cited, without tags or fusion partners.
UniProt Q16531: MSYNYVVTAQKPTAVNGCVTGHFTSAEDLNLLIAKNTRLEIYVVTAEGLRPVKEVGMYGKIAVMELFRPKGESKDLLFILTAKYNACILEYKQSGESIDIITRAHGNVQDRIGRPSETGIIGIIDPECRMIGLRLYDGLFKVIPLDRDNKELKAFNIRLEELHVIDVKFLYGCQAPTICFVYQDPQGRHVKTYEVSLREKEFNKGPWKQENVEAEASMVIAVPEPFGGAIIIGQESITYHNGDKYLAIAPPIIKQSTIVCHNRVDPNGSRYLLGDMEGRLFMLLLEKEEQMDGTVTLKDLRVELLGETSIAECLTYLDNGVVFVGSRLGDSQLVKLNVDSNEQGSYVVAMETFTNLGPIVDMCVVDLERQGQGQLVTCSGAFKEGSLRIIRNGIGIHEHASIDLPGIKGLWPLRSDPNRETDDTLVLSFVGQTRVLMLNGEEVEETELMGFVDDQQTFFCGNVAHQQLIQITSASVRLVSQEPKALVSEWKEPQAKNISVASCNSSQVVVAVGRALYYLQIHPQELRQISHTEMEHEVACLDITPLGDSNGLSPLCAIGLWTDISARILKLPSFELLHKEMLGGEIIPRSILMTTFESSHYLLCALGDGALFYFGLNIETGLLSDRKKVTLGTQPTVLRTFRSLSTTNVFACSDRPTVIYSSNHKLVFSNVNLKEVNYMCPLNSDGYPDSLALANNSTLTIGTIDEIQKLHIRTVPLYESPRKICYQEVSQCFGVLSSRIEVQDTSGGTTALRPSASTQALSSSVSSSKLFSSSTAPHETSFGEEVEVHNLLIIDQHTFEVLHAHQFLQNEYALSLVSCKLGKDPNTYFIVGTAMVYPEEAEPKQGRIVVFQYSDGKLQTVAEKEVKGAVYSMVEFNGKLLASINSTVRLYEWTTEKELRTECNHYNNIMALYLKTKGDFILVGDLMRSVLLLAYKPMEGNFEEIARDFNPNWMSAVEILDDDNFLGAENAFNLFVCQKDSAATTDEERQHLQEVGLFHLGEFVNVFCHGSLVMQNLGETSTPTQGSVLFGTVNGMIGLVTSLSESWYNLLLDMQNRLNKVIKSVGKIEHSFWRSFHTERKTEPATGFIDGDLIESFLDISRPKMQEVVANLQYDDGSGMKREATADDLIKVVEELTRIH
UniProt Q14209: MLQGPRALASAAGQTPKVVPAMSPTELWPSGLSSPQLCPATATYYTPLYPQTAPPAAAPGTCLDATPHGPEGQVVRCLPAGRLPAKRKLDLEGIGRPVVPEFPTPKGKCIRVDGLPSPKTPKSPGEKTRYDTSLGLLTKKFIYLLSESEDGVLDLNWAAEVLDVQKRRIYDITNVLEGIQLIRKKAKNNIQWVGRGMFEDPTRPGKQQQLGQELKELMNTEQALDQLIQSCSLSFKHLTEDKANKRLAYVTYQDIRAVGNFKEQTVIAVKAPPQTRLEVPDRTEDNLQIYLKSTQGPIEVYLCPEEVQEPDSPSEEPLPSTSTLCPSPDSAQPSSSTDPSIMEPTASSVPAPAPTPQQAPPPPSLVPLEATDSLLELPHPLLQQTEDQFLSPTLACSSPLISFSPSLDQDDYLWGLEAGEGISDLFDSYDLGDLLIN

Target: T1, DCAF13 (human (endogenous in liver CSCs)) (UniProt Q9NV06)
T1 sequence: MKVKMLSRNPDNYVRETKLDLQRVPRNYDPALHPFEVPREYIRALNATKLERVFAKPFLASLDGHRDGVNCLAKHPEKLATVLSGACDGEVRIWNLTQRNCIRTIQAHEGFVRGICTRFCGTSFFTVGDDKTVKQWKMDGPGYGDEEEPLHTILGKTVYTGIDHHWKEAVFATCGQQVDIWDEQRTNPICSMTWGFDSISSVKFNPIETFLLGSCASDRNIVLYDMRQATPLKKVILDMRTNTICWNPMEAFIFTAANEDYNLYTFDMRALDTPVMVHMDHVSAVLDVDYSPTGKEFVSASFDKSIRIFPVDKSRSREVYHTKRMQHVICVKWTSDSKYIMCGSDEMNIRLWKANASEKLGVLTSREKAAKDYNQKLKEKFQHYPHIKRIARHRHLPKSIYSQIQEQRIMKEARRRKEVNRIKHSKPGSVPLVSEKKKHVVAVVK
Experiment: affinity purification with mass spectrometry; immunoprecipitation with anti-DCAF13 antibody (IgG as control) from lysates of SNORA74A depleted liver CSCs, bands identified by mass spectrometry

Substance	binding
DDB1 (from UniProt Q16531 1-1140)	binds
E2F2 (from UniProt Q14209 1-437)	binds
